In article PMC7257233:
These are yes or no findings as the source states them, for the method shown. Binding seen in cells or lysates may run through a third protein. Some entries that bind do so weakly or less than the wild type. Sequences can lack the tags named with a protein.

Target: T1, His-tagged GMEB1 protein (GMEB1-His) (UniProt Q9Y692)
T1 sequence: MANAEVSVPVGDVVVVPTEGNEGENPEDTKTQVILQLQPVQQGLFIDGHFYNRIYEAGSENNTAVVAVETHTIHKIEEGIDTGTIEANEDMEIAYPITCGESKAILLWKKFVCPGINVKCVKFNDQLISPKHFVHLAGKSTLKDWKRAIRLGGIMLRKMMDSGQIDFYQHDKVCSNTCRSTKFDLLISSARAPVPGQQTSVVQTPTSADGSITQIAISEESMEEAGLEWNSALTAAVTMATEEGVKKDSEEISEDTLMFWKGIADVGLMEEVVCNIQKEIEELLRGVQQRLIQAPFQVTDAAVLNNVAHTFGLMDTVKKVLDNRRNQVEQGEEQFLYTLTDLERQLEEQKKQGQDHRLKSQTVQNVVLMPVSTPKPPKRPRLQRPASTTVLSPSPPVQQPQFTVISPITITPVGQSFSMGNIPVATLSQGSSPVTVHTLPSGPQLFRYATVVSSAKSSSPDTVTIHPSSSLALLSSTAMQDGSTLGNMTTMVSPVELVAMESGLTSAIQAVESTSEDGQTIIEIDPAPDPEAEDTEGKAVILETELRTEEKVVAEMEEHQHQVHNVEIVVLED
Assay: co-IP; HEK293FT cells co-transfected with GMEB1-His and FLAG-tagged TRAF3 forms; lysed in 0.5% NP40 buffer (25 mM Tris-HCl pH 7.4, 150 mM NaCl, 5 mM EDTA); GMEB1-His precipitated with Ni-NTA beads; blot with anti-FLAG and anti-His

binding: binds
B1: FLAG-tagged mutant TRAF3 M7 (TRAF3 M7-flag) (protein, UniProt Q13114 1-568)
chain: MESSKKMDSPGALQTNPPLKLHTDRSAGTPVFVPEQGGYKEKFVKTVEDKYKAEKAHLVLCSPKQTECGHRFCESCMAALLSSSSPKCTACQESIVKDKVFKDNCCKREILALQIYCRNESRGCAEQLMLGHLLVHLKNDCHFEELPCVRPDCKEKVLRKDLRDHVEKACKYREATCSHCKSQVPMIALQKHEDTDCPCVVVSCPHKCSVQTLLRSELSAHLSECVNAPSTCSFKRYGCVFQGTNQQIKAHEASSAVQHVNLLKEWSNSLEKKVSLLQNESVEKNKSIQSLHNQICSFEIEIERQKEMLRNNESKILHLQRVIDSQAEKLKELDKEIRPFRQNWEEADSMKSSVESLQNRVTELESVDKSAGQVARNTGLLESQLSRHDQMLSVHDIRLADMDLRFQVLETASYNGVLIWKIRDYKRRKQEAVMGKTLSLYSQPFYTGYFGYKMCARVYLNGDGMGKGTHLSLFFVIMRGEYDALLPWPFKQKVTLMLMDQGSSRRHLGDAFKPDPNSSSFKKPTGEMNIASGCPVFVAQTVLENGTYIKDDTIFIKVIVDTSDLPDP
